From PMC11302872
Results are given in words; binding and its absence hold for the method and conditions named. In cells and extracts the contact can be indirect. Here binding means that the protein was enriched with, or labelled near, the bait; the list need not be complete.

By UniProt entry, the sequences of proteins in these tests, tags left out. Residues count along the entry.
UniProt Q969V5: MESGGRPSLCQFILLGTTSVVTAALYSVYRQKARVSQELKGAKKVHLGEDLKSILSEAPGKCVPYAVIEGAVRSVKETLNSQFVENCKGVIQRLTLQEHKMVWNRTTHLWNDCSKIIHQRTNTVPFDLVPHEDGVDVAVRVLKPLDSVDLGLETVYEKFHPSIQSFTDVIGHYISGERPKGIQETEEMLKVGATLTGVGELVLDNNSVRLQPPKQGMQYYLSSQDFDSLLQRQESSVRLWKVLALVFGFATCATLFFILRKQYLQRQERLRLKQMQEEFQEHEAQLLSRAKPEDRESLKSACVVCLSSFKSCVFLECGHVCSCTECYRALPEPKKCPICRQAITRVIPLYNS
UniProt P38646, residues 47-679: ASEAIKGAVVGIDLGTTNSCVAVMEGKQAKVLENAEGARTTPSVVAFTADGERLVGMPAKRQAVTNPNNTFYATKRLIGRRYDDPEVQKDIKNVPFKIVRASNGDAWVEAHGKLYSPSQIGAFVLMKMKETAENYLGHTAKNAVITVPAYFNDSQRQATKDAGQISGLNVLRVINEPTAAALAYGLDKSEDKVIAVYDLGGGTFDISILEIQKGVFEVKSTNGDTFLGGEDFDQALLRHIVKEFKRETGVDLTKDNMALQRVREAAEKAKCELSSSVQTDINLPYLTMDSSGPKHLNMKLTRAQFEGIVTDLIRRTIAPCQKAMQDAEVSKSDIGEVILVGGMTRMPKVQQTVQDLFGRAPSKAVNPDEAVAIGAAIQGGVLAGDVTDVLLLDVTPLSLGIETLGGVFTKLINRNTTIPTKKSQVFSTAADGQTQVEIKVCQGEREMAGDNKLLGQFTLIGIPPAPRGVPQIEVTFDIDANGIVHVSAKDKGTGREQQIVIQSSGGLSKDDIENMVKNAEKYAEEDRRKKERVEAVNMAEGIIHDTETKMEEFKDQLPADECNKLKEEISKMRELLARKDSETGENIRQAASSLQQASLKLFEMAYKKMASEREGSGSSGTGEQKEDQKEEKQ
UniProt Q15022: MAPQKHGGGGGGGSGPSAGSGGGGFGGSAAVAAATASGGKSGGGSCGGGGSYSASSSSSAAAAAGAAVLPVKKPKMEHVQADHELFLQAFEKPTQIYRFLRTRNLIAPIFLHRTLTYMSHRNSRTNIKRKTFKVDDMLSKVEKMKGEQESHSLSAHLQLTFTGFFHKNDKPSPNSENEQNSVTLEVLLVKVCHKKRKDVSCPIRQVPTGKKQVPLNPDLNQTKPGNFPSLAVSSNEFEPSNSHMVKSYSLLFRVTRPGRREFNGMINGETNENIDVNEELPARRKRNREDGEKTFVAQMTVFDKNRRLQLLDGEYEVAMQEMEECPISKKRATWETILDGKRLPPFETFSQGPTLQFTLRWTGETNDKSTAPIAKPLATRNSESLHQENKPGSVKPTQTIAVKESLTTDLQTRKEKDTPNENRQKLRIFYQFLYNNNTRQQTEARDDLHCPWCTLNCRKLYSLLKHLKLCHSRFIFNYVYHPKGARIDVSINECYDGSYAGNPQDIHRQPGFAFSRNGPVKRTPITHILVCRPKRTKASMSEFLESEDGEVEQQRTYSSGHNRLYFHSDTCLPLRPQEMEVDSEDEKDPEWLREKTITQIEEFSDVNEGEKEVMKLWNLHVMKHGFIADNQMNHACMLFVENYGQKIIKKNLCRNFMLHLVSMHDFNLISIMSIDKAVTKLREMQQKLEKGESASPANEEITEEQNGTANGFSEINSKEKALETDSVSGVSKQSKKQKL

Experiments:
[1] = target: Mitochondrial E3 ubiquitin ligase 1 (MUL1) (human (endogenous in T24 and UM-UC-3)) (UniProt Q969V5); experiment: affinity purification with mass spectrometry; co-IP of MUL1 from T24 and UM-UC-3 cells followed by MS; proteins overlapping in both cell lines
[2] = target: GFP-tagged wild-type HSPA9 (OE-HSPA9) (human) (UniProt P38646); experiment: affinity purification with mass spectrometry; co-IP and MS (qualitative and comparative quantitative proteomics) from mitochondria-free cell lysates of OE-HSPA9 and OE-HSPA9-K612R cells

| binding [1] | binding [2] | Substance |
| --- | --- | --- |
| binds | – | HSPA9 (from UniProt P38646 47-679) |
| – | binds | SUZ12 (from UniProt Q15022 1-739) |
